# Library screening results

Protein sequences, listed by entry. Tags and fused reporters are not part of them.
UniProt E9BF75, entry or part of it: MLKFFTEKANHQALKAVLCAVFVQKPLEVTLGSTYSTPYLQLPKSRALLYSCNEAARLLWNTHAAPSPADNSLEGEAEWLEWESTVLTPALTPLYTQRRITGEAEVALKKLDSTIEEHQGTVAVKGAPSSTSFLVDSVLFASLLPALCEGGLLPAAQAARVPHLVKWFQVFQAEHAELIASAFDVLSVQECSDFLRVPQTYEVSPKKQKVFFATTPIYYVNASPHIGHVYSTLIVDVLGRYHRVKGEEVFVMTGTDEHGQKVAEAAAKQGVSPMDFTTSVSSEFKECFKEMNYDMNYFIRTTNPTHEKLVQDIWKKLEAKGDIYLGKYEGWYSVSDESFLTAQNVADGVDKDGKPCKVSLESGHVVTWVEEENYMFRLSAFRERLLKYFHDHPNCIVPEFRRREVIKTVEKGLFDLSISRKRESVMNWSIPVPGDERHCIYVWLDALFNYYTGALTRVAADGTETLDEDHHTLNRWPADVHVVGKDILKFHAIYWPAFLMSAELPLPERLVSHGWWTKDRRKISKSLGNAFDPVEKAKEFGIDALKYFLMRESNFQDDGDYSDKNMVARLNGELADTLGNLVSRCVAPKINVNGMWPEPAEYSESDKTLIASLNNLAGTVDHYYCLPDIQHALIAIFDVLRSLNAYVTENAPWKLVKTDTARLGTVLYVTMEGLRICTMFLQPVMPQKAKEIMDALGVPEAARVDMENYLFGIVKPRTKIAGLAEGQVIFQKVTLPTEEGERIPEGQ

All values are in %. The controls that fix the scale are not given in the record; negative values are as filed. Compounds were drawn at random from those tested, without regard to their results.

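Methionyl-tRNA synthetase (putative), Leishmania donovani (UniProt E9BF75). Primary screen of methionyl-tRNA synthetase; the read-out is not stated. The test concentration is not given. The values are filed as inhibition. Size under these conditions: about 68,000 compounds, about 24 of them at 50% or above in at least one test.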

compound | inhibition
CC(=O)c1cccc(OCC(=O)NS(=O)(=O)c2ccc(C)s2)c1 | 8.92%
Cc1cnn(CCNCC(=O)N(C)C(C)c2ccccc2)c1 (configuration not stated) | 13.8%
CC(C)COC(C)C(=O)NCc1ccccc1 (configuration not stated) | 9.945%
O=C(Cc1ccccn1)N1CCC2(CC1)CC(Oc1ccccn1)CO2 (configuration not stated) | 12.89%
O=C(NC1CCN(c2ccc(-c3ccccc3F)nn2)C1)C1CCC1 (configuration not stated) | 6.475%
COc1c(CNCC(O)c2ccccc2F)c(C(C)C)nn1C (configuration not stated) | 3.704%
CC(C)(C)c1coc([C@@H]2COCCN2Cc2ccccn2)n1 | 6.015%
Cc1ccc(N2CCO[C@H]3CN(Cc4cc(C)on4)CC[C@H]3C2=O)cn1 | 20.33%
COCCn1cncc1CN1CCCC(C(=O)Cc2ccccc2)C1 (configuration not stated) | 8.824%
Cc1nc(C2(NCC(=O)NC(=O)NCC(F)(F)F)CCCCC2)no1 | 11.27%
Cn1cc(CN2CC[C@@H]3[C@@H](CCC(=O)N3CC3CCNCC3)C2)cn1 | 6.383%
CSC(C)(C)CNC(=O)NC1CCN(CC=C(C)C)CC1 | -57.82%
CN(C)CCNC(=O)CNC(=O)N1CCc2c([nH]c3ccc(Cl)cc23)C1 | 7.054%
CC1CCN(C(=O)CN2CC(c3nc(C4CC4)no3)C2)CC1 | 7.645%
CCN(CC1CCOC1)C(=O)NCc1ccc(-n2cncn2)nc1 (configuration not stated) | 7.94%
Cc1n[nH]c(C)c1CNc1ccc(-c2nc(C3CC3)no2)cn1 | 14.29%
CC(C)c1ccc(C(=O)N2CCOCC2CC(=O)c2ccco2)cn1 (configuration not stated) | 4.507%
CC(=O)N1CC2(CCCC2)c2ccccc21 | 0.7752%
CCC[C@H]1CN(CCS(C)(=O)=O)C[C@@H]1NC(=O)c1cc(CC)on1 | 6.87%
Cc1ccc(C(=O)N2CC[C@@]3(O)CCN(C(=O)N(C)C)C[C@H]3C2)cc1Cl | 4.982%
CCCNC(=O)c1nn(CC)cc1NC(=O)C(C)n1ncc(Cl)c1C (configuration not stated) | 7.311%
CSC(C)C(=O)N(C)C1CCN(c2ccc(Cl)cc2)CC1 (configuration not stated) | 21.33%
O=c1[nH]c2nc(N3CCSCC3)ncc2c(=O)n1-c1ccc(F)cc1 | 14.16%
CC(C)CNC(=O)CNC(=O)NC(c1nccs1)C1CC1 (configuration not stated) | 18.23%
Cc1cc(CN(C)C(=O)NC2CCN(c3ncccn3)CC2)no1 | 20.22%
CC(C)Nc1ncnc2c1CCN(C(=O)NCc1cccc(F)c1)CC2 | 8.269%
Cc1c(C(=O)NC2CCCC2)nnn1-c1ccccc1 | 11.18%
C[C@H](NC(=O)C1(N(C)Cc2ccccc2)Cc2ccccc2C1)C(N)=O | 6.164%
CCOCCCNC(=O)CN(c1cccc(F)c1)S(C)(=O)=O | 6.857%
Cn1nc(C(=O)N2CCOCC2)cc1C(=O)Nc1c(Cl)cccc1Cl | 6.63%
CCOc1ccc(CNCCCn2ccnc2)cc1Br | 7.884%
Cc1nc(C2CCCN(C(=O)CCCOc3cccc(F)c3)C2)no1 (configuration not stated) | 14.71%
CN(C)c1ncc(C(=O)N2C[C@H]3C[C@H](Oc4ccccc4)C[C@H]3C2)cn1 | 18.69%
CSCc1cccc(S(=O)(=O)NCCCn2ccnc2)c1 | 15.75%
COCCCNC(=O)c1ccn(-c2ccc3ccccn23)n1 | 8.497%
Cn1ccc(C(=O)N2CCN(CC(O)C(C)(C)C)CC2)cc1=O (configuration not stated) | 0.8596%
CCOCC(=O)N1CCC(CSCc2ccco2)CC1 | 8.696%
COc1ccccc1-n1nc(-c2ccco2)n(CC(=O)NC2CC2)c1=O | 3.581%
COc1ccc(CN2C[C@H]3CN(Cc4ccncc4)C(=O)[C@H]3C2)cc1 | 11.67%
O=C(NC1CC1)[C@H]1C[C@H]2OCC[C@H]2N(CC2CC2)C1 | 6.276%
O=C(NCCc1nccs1)C(c1ccccc1)n1cnnn1 (configuration not stated) | 10.72%
CN(C)C(=O)[C@@H]1C[C@@H]2CCN(Cc3nccs3)C[C@@H]2O1 | 17.17%
O=C(c1ccc[nH]1)N1C[C@H]2CC[C@@H]1CN(c1ncccn1)C2 | 15.75%
CCC(C)NC(=O)c1ccccc1-n1cnnn1 (configuration not stated) | 19.51%
CCc1ccc2nc(C)cc(C(=O)NC3CCCCNC3=O)c2c1 (configuration not stated) | 19.03%
Cn1ccnc1CN1CCN(Cc2noc(-c3ccccc3)n2)CC1 | 19.58%
O=C(N[C@@H]1CCCNC1)C1(Oc2ccc(Cl)cc2)CCNCC1 | 2.419%
O=C(NC1CCS(=O)(=O)c2ccccc21)c1cccs1 (configuration not stated) | 9.524%
CN(Cc1ccco1)[C@@H]1CN(C(=O)c2cnccn2)C[C@@H]2CCCO[C@@H]21 | 13.75%
Cc1cnc(N2C[C@H]3C[C@H](C(=O)N4CCN(C)CC4)N(C)[C@H]3C2)nc1 | 8.042%
COc1cc(CNC(c2ccccc2)c2nccn2C)cc(OC)c1 (configuration not stated) | 16.83%
Cn1c(=O)c2c(c3ccccc31)OC(C)(C)CC2 | 13.16%
CCn1ncc2c1CCCC2NCc1ccc(C)s1 (configuration not stated) | 12.03%
CCc1nnc(CS(=O)(=O)c2ccc(C)cc2)n1C | 9.214%

Some entries from above, unchanged:

- CN(C)CCNC(=O)CNC(=O)N1CCc2c([nH]c3ccc(Cl)cc23)C1 : 7.054%
- COCCCNC(=O)c1ccn(-c2ccc3ccccn23)n1 : 8.497%
- CSC(C)(C)CNC(=O)NC1CCN(CC=C(C)C)CC1 : -57.82%
- O=C(NC1CCN(c2ccc(-c3ccccc3F)nn2)C1)C1CCC1 (configuration not stated) : 6.475%
- Cc1n[nH]c(C)c1CNc1ccc(-c2nc(C3CC3)no2)cn1 : 14.29%

Measurements from “University of Dundee, Small-Polar-MMV Screening Library” (2021), ChEMBL document CHEMBL3988442.